# Results from one PubChem assay

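293T-iDUX4 dual-reporter cells; luminescence of the tet-on Italica luciferase control is read after 24 h.
The test concentration is not given here.
Percent change in the Italica control signal; more negative values mean stronger inhibition, which points to nonspecific, tet-on or cytotoxic effects.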

Values are in %.
Common to all entries: measured here: Italica tet-on control reporter.
Part of the compounds only, not a random draw; the main read-out is not listed here.

Compound | activity change (%)
Cc1ccc(S(=O)(=O)N[C@H]2C=C[C@H](CC(=O)NCc3ccc(Cl)c(Cl)c3)O[C@@H]2CO)cc1 | -5.878
O=C(c1cccc(F)c1)N1CCCCN2[C@H](CO)[C@H](c3ccc(C#CC4(O)CCCC4)cc3)[C@@H]2C1 | -0.5849
O=C(C1CCCC1)N1CC2(C1)[C@H](c1ccccc1)[C@H](CO)N2Cc1ccccc1F | -7.769
O=C(C1CC1)N1CC[C@@H]2[C@@H](CO)Nc3ccc(-c4ccc(F)cc4)cc3[C@@H]21 | -8.258
COc1ccccc1CNC(=O)C[C@H]1C[C@H]2c3cc(NS(=O)(=O)c4ccc(F)cc4)ccc3O[C@H]2[C@H](CO)O1 | -11.07
COc1ccccc1S(=O)(=O)N1CC[C@@H]2[C@H](CO)Nc3ccc(-c4ccc(F)cc4)cc3[C@@H]21 | -50.46
CN1c2ccc(-c3ccc(F)cc3)cc2[C@H]2[C@H](CCN2C(=O)c2ccccn2)[C@@H]1CO | -55.47
O=C(Cc1ccccc1)N1CC[C@H]2[C@H](CO)Nc3ccc(C4=CCCCC4)cc3[C@H]21 | -28.62
C[C@H](C(=O)N(C)C[C@@H]1OCc2ccccc2-c2c(n(C)c3ccccc23)C(=O)N([C@H](C)CO)C[C@@H]1C)c1ccccc1 | -96.81
CCCNC(=O)N1CC2(CCN(Cc3cccc(OC)c3)CC2)c2c(n(C)c3cc(OC)ccc23)[C@H]1CO | -54.11
Cc1cccc(-c2ccc([C@H]3[C@@H](CO)N4CCCCN(S(=O)(=O)c5cccs5)C[C@H]34)cc2)c1 | -13.95
O=C(c1ccc(F)cc1)N1CC(=O)N2[C@@H](CO)[C@H](c3ccc(C#CCC4CCCC4)cc3)[C@@H]2C1 | -6.147
COc1ccc2c3c(n(C)c2c1)[C@@H](CO)N(Cc1ccccc1OC)CC31CCN(C)CC1 | -21.86
O=C(C1CC1)N1[C@@H](CO)[C@@H](c2ccccc2)C12CN(Cc1cccc(Cl)c1)C2 | -7.933
CN(C)C(=O)c1ccc(-c2ccc3c(c2)[C@@H]2[C@@H](CCN2C(=O)c2ccc(F)cc2)[C@H](CO)N3C)cc1 | -24.14
C[C@@H](NC(=O)C[C@@H]1CC[C@H]2[C@@H](COC[C@H](O)CN2Cc2ccc(C(F)(F)F)cc2)O1)c1ccccc1 | -7.329
CC(=O)N1CCCCN2[C@@H](CO)[C@@H](c3ccc(C#Cc4ccccc4F)cc3)[C@@H]2C1 | -6.98
CN(C)C(=O)c1ccc(-c2ccc3c(c2)[C@@H]2[C@@H](CCN2C(=O)C2CCCC2)[C@@H](CO)N3C)cc1 | -17.59
N#Cc1ccc(-c2ccc3c(c2)[C@@H]2[C@@H](CCN2S(=O)(=O)c2ccccc2F)[C@H](CO)N3)cc1 | 2.696
COc1cccc(CNC(=O)[C@@H]2N[C@@H]3c4ccc(/C=C/c5ccccc5)c(=O)n4C[C@@H]3[C@H]2CO)c1 | -8.732
CN1c2ccc(-c3ccc(F)cc3)cc2[C@H]2[C@H](CCN2C(=O)c2ccncc2)[C@@H]1CO | -28.54
COc1ccc2c3c(n(C)c2c1)[C@H](CO)N(C(=O)Nc1ccc(F)cc1)CC31CCN(Cc2ccccn2)CC1 | -1.595
O=C(C[C@@H]1CC[C@H]2[C@@H](COC[C@H](O)CN2Cc2ccc(Oc3ccccc3)cc2)O1)N1CCOCC1 | -7.494
COc1ccc(-c2ccc([C@H]3[C@H]4CN(C(=O)c5ccc(F)cc5)CCCCN4[C@H]3CO)cc2)cc1 | -10.96
COc1cccc(-c2ccc3c(c2)[C@@H]2[C@@H](CCN2C(=O)c2cccc(F)c2)[C@@H](CO)N3)c1 | -27.93
Cc1cccc(S(=O)(=O)N2CCCCN3[C@H](C2)[C@@H](c2ccc(C#C[C@H](C)O)cc2)[C@@H]3CO)c1 | -88.64
COc1cccc(C#Cc2ccc([C@@H]3[C@H]4CN(C(=O)Cc5ccccc5)CC(=O)N4[C@H]3CO)cc2)c1 | -19.45
CCCC#Cc1ccc2c(c1)[C@@H]1[C@@H](CCN1S(=O)(=O)c1ccc(F)cc1)[C@@H](CO)N2C | -7.921
O=C(Nc1ccc(F)cc1)N1CCCCN2[C@H](C1)[C@@H](c1ccc(-c3cccc(F)c3)cc1)[C@@H]2CO | -28.43
O=C(C[C@H]1CC[C@H]2[C@@H](COC[C@@H](O)CN2S(=O)(=O)c2ccccc2F)O1)N1CCC(Cc2ccccc2)CC1 | 1.888
N#Cc1cccc(-c2ccc3c(c2)[C@@H]2[C@@H](CCN2C(=O)C2CCCCC2)[C@@H](CO)N3)c1 | -75.03
OC[C@@H]1[C@@H](c2ccc(/C=C/c3ccccc3)cc2)[C@@H]2CN(Cc3ccncc3)CCCCN12 | -9.948
C[C@H](CO)N1C[C@H](C)[C@H](CN(C)Cc2ccc(Cl)c(Cl)c2)OCc2cnnn2CCCC1=O | -17.48
O=C(c1ccccn1)N1CC[C@@H]2[C@@H](CO)Nc3ccc(C#Cc4cccnc4)cc3[C@@H]21 | -1.561
O=S(=O)(c1ccccc1)N1CC2(C1)[C@H](c1ccccc1)[C@H](CO)N2CCC(F)(F)F | -23.85
Cc1ccccc1S(=O)(=O)N1CCCCN2[C@H](CO)[C@H](c3ccc(-c4cccc(F)c4)cc3)[C@@H]2C1 | -9.397
COc1cc(CN2CC3(CN(S(=O)(=O)c4cccc(F)c4)C3)c3c([nH]c4cc(OC)ccc34)[C@H]2CO)cc(OC)c1 | 0.8857
N#Cc1ccc(-c2ccc3c(c2)[C@H]2[C@H](CCN2C(=O)C2CCCCC2)[C@H](CO)N3)cc1 | -18.4
O=C(C1CCCC1)N1CC2(C1)[C@H](c1ccccc1)[C@H](CO)N2CC1CCCC1 | -6.72
COc1ccc2c3c(n(C)c2c1)[C@H](CO)N(C(=O)Nc1ccc(F)cc1)CC31CCN(S(=O)(=O)c2cccc(C)c2)CC1 | -24.41
Cc1ccc(S(=O)(=O)N2CC[C@@H]3[C@H]2c2cc(-c4cccc(C(=O)N(C)C)c4)ccc2N[C@@H]3CO)cc1 | -32.46
O=C(C[C@@H]1C[C@H]2c3cc(NC(=O)Nc4ccccc4F)ccc3O[C@H]2[C@@H](CO)O1)NC1CCCCC1 | 5.01
CCCNC(=O)N1[C@H](CO)[C@H](c2ccccc2-c2ccc(OC)cc2)[C@@H]1C#N | -16.63
O=C(C[C@@H]1C=C[C@@H](NS(=O)(=O)c2ccc(F)cc2)[C@H](CO)O1)N1CCc2ccccc2C1 | -5.3
C[C@H](NC(=O)C[C@H]1C[C@@H]2c3cc(NC(=O)Nc4ccc(C(F)(F)F)cc4)ccc3O[C@@H]2[C@H](CO)O1)c1ccccc1 | -12.57
O=C(C[C@@H]1C[C@H]2c3cc(NC(=O)Nc4ccccc4F)ccc3O[C@H]2[C@H](CO)O1)NCc1ccc2c(c1)OCO2 | -1.798
Cc1ccccc1S(=O)(=O)N1C[C@H](O)COC[C@H]2O[C@@H](CC(=O)NCc3ccccc3Cl)CC[C@@H]21 | -6.846
C[C@@H]1CN([C@H](C)CO)C(=O)c2c(c3ccccc3n2C)-c2ccccc2CO[C@H]1CN(C)C(=O)c1ccc(F)cc1 | -0.2485
O=C(C[C@H]1CC[C@@H]2[C@H](COC[C@@H](O)CN2Cc2ccc(C(F)(F)F)cc2)O1)NCCc1ccccc1 | -25.38

The last 3 entries again:

Compound,activity change (%)
Cc1ccccc1S(=O)(=O)N1C[C@H](O)COC[C@H]2O[C@@H](CC(=O)NCc3ccccc3Cl)CC[C@@H]21,-6.846
C[C@@H]1CN([C@H](C)CO)C(=O)c2c(c3ccccc3n2C)-c2ccccc2CO[C@H]1CN(C)C(=O)c1ccc(F)cc1,-0.2485
O=C(C[C@H]1CC[C@@H]2[C@H](COC[C@@H](O)CN2Cc2ccc(C(F)(F)F)cc2)O1)NCCc1ccccc1,-25.38

Source: PubChem BioAssay AID1224904 (Broad Institute, 2016).